PubChem BioAssay AID504804, Drosophila RNAi Screening Center | 2011
In all, the deposit lists about 19,000 reagents; shown is an unselected part of those with a known target gene and a result. Of all reagents, 47 (0.25%) got an active call. 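Signals are raw, not normalised; exact z-scores behind calls not deposited; actives needed confirmation, so some wells reaching 2 SD are inactive.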 Unmarked entries are inactive.

Test: 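Knock-downs shielding fly cells from apoptosis caused by DNA damage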 (primary screen)
Cells: Drosophila Kc cells
Reagent: long dsRNA against Drosophila genes, 0.5 µg dsRNA per well
Duration: 96 h (48 h knock-down, then 48 h drug)
Conditions: doxorubicin 5 µg/ml for 48 h, added 48 h after dsRNA
Measured: 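Luminescent ATP counts per replicate, not normalised, reflecting viable cells after 48 h dsRNA knock-down followed by 48 h of 5 µg/ml doxorubicin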
Direction: raw ATP luminescence: higher = more viable cells, protection from doxorubicin
Hit rule: 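Active when both duplicate wells lie at least 2 SD above the plate mean and protection is confirmed by rescreening and independent dsRNAs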

With knock-down of Ggamma30A [DRSC02715], the screen gave raw ATP luminescence, replicate 1 = 43630; raw ATP luminescence, replicate 2 = 82870.
After knock-down of Ggamma30A [DRSC03331], the record shows raw ATP luminescence, replicate 1 = 47353; raw ATP luminescence, replicate 2 = 75373.
CG9795 [DRSC12336] showed raw ATP luminescence, replicate 1 = 29697; raw ATP luminescence, replicate 2 = 32557.
Silencing of CG10154 [DRSC09707] came out at: raw ATP luminescence, replicate 1 = 78840; raw ATP luminescence, replicate 2 = 68637.
Depletion of Pu [DRSC04645] gave: raw ATP luminescence, replicate 1 = 66230; raw ATP luminescence, replicate 2 = 60533.
CG6324 [DRSC19985] showed raw ATP luminescence, replicate 1 = 3.12e5; raw ATP luminescence, replicate 2 = 2.93e5.
GNBP1 [DRSC11169] scored raw ATP luminescence, replicate 1 = 45817; raw ATP luminescence, replicate 2 = 49170.
For ball [DRSC14145] the deposit lists raw ATP luminescence, replicate 1 = 49300; raw ATP luminescence, replicate 2 = 39530.
Col4a1 [DRSC03291] showed raw ATP luminescence, replicate 1 = 80880; raw ATP luminescence, replicate 2 = 66403.
Against eEF2 [DRSC03737], the values are raw ATP luminescence, replicate 1 = 37720; raw ATP luminescence, replicate 2 = 31007.
SmydA-1 [DRSC07200] gave raw ATP luminescence, replicate 1 = 68073; raw ATP luminescence, replicate 2 = 48590.

Just “raw ATP luminescence, replicate 2” (3 entries from above):
CG6324 [DRSC19985] = 2.93e5
GNBP1 [DRSC11169] = 49170
ball [DRSC14145] = 39530

The results go on:
Depletion of Cdc5 [DRSC08577] came out at: raw ATP luminescence, replicate 1 = 52597; raw ATP luminescence, replicate 2 = 50837.
For EMC5 [DRSC02469], the values are raw ATP luminescence, replicate 1 = 67400; raw ATP luminescence, replicate 2 = 72143.
After knock-down of Mov10 [DRSC07012], the record shows raw ATP luminescence, replicate 1 = 81267; raw ATP luminescence, replicate 2 = 88750.
Depletion of Atf3 [DRSC17225] came out at: raw ATP luminescence, replicate 1 = 15650; raw ATP luminescence, replicate 2 = 15600.
aft [DRSC07576] showed raw ATP luminescence, replicate 1 = 64950; raw ATP luminescence, replicate 2 = 58163.
Depletion of nrv2 [DRSC00948] gave: raw ATP luminescence, replicate 1 = 2.78e5; raw ATP luminescence, replicate 2 = 2.77e5.
Depletion of nrv2 [DRSC03383] gave: raw ATP luminescence, replicate 1 = 1.03e5; raw ATP luminescence, replicate 2 = 96417.
For CG33337 [DRSC13632] the deposit lists raw ATP luminescence, replicate 1 = 2.29e5; raw ATP luminescence, replicate 2 = 1.99e5.
